This is an account of results in PubChem BioAssay AID248 (DTP/NCI, 2004).

The test system of this experiment is L1210 leukemia ip in BDF1 mice, survival T/C. The experiment is described as follows: NCI In Vivo Anticancer Drug Screen. Data for tumor model L1210 Leukemia (intraperitoneal) in B6D2F1 (BDF1) mice. The conditions noted are these: T/C endpoint: mean survival time, higher T/C = longer survival.
Where [1] appears, read: dose: 200.0 mg/kg/injection, schedule: Q04DX002 (ip), vehicle: saline with Tween-80.
Setting [2] is: dose: 400.0 mg/kg/injection, schedule: Q04DX002 (ip), vehicle: Klucel (hydroxypropylcellulose) (HPC).

The list does not hold the whole screen: it is rich in T/C values a quarter to a half above the control, in often repeated tests (any T/C) and in doses without a T/C. Other doses and runs of a compound stand elsewhere. T/C: endpoint of the treated group in % of that of the vehicle group. Some entries give survivors of the animals treated and no T/C: the source holds a T/C of zero for them, seemingly a mark for toxic or unscored doses. Some doses without a T/C left all or most animals alive at the check, yet need not have been tolerated: survival well below the control is almost never listed, so the zero probably covers shortened survival too. Survivors were counted at the toxicity check, usually on the fifth day, unless a day is given; later deaths do not show. Schedules are NCI's codes, taken here to give the interval after Q, in days (D) or hours (H), and the number of doses after X. Some entries hold several experiments; the values are given in rising order. Some schedule codes hold Z or #, which are not explained here. For survival time, the PubChem record calls one and a half times the control and up active, and a quarter to a half above the control has no call in these data; cut-offs in other NCI protocols can differ. Additions like (4×) stand for listed records that agree.

`C=C(C)CN1C(=O)c2ccccc2C1=O`: the survivor count runs as follows: (dose: 100.0 mg/kg/injection, schedule: Q01DX009 (ip), vehicle: gum acacia) 6 of 6; (dose: 200.0 mg/kg/injection, schedule: Q01DX009 (ip), vehicle: gum acacia) 6 of 6; (dose: 400.0 mg/kg/injection, schedule: Q01DX009 (ip), vehicle: gum acacia) 6 of 6.
As to `CCC(O)(CC(=O)O)c1ccccc1` (centres undefined), for the setting “dose: 400.0 mg/kg/injection, schedule: Q01DX009 (ip), vehicle: saline with Tween-80”, the survivor count was 1 of 6.
With `CCCCCCOC(CN)C(Cl)(Cl)Cl` (centres undefined), the survivor count by setting is: (dose: 100.0 mg/kg/injection, schedule: Q01DX009 (ip), vehicle: saline with Tween-80) 1 of 6; (dose: 100.0 mg/kg/injection, schedule: Q04DX003 (ip), vehicle: saline with Tween-80) 4 of 6; (dose: 200.0 mg/kg/injection, schedule: Q04DX003 (ip), vehicle: saline with Tween-80) 0 of 6; (dose: 400.0 mg/kg/injection, schedule: Q04DX003 (ip), vehicle: saline with Tween-80) 0 of 6.
Consider `COc1ccc(Cl)cc1NC(=O)Oc1ccc2ccccc2c1`, for which the T/C reads like this: (dose: 100.0 mg/kg/injection, schedule: Q04DX002 (ip), vehicle: saline with Tween-80) 93, 102, 103, 104 % of control; under setting [1], 95, 97, 100 % of control; (dose: 400.0 mg/kg/injection, schedule: Q04DX002 (ip), vehicle: saline with Tween-80) 87, 93, 97, 100 % of control. Under setting [1], the survivor count was 3 of 3.
Consider `CCCCCCCCCCCCCCCCC(=O)OCC`, for which the survivor count is, setting by setting: (dose: 150.0 mg/kg/injection, schedule: Q01DX001 (ip), vehicle: carboxymethylcellulose (CMC)) 0 of 6; (dose: 300.0 mg/kg/injection, schedule: Q01DX001 (ip), vehicle: carboxymethylcellulose (CMC)) 0 of 6.
For `C/C(=N/N=C(N)N)c1ccc(F)cc1`, the survivor count was 1 of 6 (dose: 60.0 mg/kg/injection, schedule: Q01DX Z (ip), vehicle: carboxymethylcellulose (CMC)); 0 of 6 (dose: 120.0 mg/kg/injection, schedule: Q01DX Z (ip), vehicle: carboxymethylcellulose (CMC)); 1 of 6 (dose: 120.0 mg/kg/injection, schedule: Q01DX Z (oral), vehicle: carboxymethylcellulose (CMC)).
As to `O=NN(CCCl)C(=O)NC(CCC(=O)O)C(=O)O` (centres undefined), the T/C was 128 % of control (dose: 20.0 mg/kg/injection, schedule: Q01DX001 (ip), vehicle: saline with Tween-80); 132 % of control (dose: 30.0 mg/kg/injection, schedule: Q01DX001 (ip), vehicle: saline with Tween-80); 142 % of control (dose: 44.0 mg/kg/injection, schedule: Q01DX001 (ip), vehicle: saline with Tween-80).
On to `O=C(COc1ccc(Cl)cc1Cl)OC(=O)COc1ccc(Cl)cc1Cl`, for which the T/C (dose: 50.0 mg/kg/injection, schedule: Q01DX009 (ip), vehicle: carboxymethylcellulose (CMC)) is 97 (2×), 98, 100 % of control. The survivor count reads like this: (dose: 100.0 mg/kg/injection, schedule: Q01DX009 (ip), vehicle: carboxymethylcellulose (CMC)) 3 of 3; (dose: 200.0 mg/kg/injection, schedule: Q01DX009 (ip), vehicle: carboxymethylcellulose (CMC)) 0 of 3 and 5 of 6; (dose: 200.0 mg/kg/injection, schedule: Q04DX003 (ip), vehicle: carboxymethylcellulose (CMC)) 3 of 6; (dose: 400.0 mg/kg/injection, schedule: Q04DX002 (ip), vehicle: carboxymethylcellulose (CMC)) 0 of 3 and 5 of 6.
Turning to `CCCCCCCCC(=O)NCc1ccc(OC)cc1`, the survivor count (dose: 100.0 mg/kg/injection, schedule: Q01DX009 (ip), vehicle: other) is listed as 6 of 6.
For `CC(C)(C)NC(=O)CCl`, the survivor count (dose: 400.0 mg/kg/injection, schedule: Q01DX001 (ip), vehicle: Klucel (hydroxypropylcellulose) (HPC)) is recorded as 2 of 6.
Turning to `CCOC(=O)Nc1ccc2c(c1)/C(=N\NC(N)=S)c1ccccc1-2`, the survivor count (dose: 300.0 mg/kg/injection, schedule: Q01DX009 (ip), vehicle: saline with Tween-80) is reported as 1 of 6 and the survivor count (dose: 400.0 mg/kg/injection, schedule: Q01DX001 (ip), vehicle: saline) is on record as 3 of 6.
Consider `Cc1c(Br)c(C)c(Br)c(OCC(=O)O)c1Br`, for which the survivor count under setting [2] was 0 of 3.
Regarding `Cc1ccc(Nc2c3ccccc3nc3ccccc23)cc1C`, the survivor count reads like this: (dose: 200.0 mg/kg/injection, schedule: Q01DX009 (ip), vehicle: Klucel (hydroxypropylcellulose) (HPC)) 3 of 6; (dose: 200.0 mg/kg/injection, schedule: Q04DX002 (ip), vehicle: Klucel (hydroxypropylcellulose) (HPC)) 1 of 3; (dose: 400.0 mg/kg/injection, schedule: Q01DX009 (ip), vehicle: Klucel (hydroxypropylcellulose) (HPC)) 0 of 6; under setting [2], 0 of 3.
